PubChem BioAssay AID1259254, NCATS, 2017
Assay: 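Genome-wide screen for genes that prevent DNA re-replication in cancer cells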 (primary screen). System: human HCT116 colorectal cancer cells. Reagents: single siRNA against human genes. Duration: 3 days. Measured: 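Imaged Hoechst DNA stain sorts each cell into a cycle phase by DNA amount; per plate, G2 fraction set to 0% for non-targeting and 100% for GMNN siRNA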. Direction: G2 robust z-score and G2 cells, % of GMNN control: higher = more G2 cells, more excess DNA replication. Call rule: 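Active siRNAs have a G2 robust z of 5 or more median absolute deviations over the median, which in these data means about 38% or higher of GMNN control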.
This is a random part of about 59,000 reagents tested. Over the whole deposit, about 1,550 (2.6%) got an active call. 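G2 share is only a proxy for re-replication; each gene was hit by three separate siRNAs, and active genes were retested.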 The numbers tell different reagents against one gene apart. Further read-outs or replicates are left out here. Not given: the amount of reagent.

Silencing of GRPEL2 #1 gave: G2 robust z-score -0.324; G2 cells, % of GMNN control 0.687; inactive.
GRPEL2 #2 gave G2 robust z-score 0.975; G2 cells, % of GMNN control 9.83; inactive.
GRPEL2 #3 showed G2 robust z-score -0.411; G2 cells, % of GMNN control 0.0745; inactive.
With knock-down of RTL8A #1, the record shows G2 robust z-score 0.701; G2 cells, % of GMNN control 7.9; inactive.
RTL8A #2 gave G2 robust z-score 0.452; G2 cells, % of GMNN control 6.15; inactive.
After knock-down of RTL8A #3, the screen gave G2 robust z-score 1.74; G2 cells, % of GMNN control 15.2; inactive.
Against ERBB3 #1, the entry reads G2 robust z-score 0.646; G2 cells, % of GMNN control 7.51; inactive.
With knock-down of ERBB3 #2 the results were G2 robust z-score 5.56; G2 cells, % of GMNN control 42.1; active.
With knock-down of ERBB3 #3, the screen gave G2 robust z-score -1.09; G2 cells, % of GMNN control -4.71; inactive.
ATG10 #1 scored G2 robust z-score 12.9; G2 cells, % of GMNN control 94; active.
For ATG10 #2, the entry reads G2 robust z-score -0.284; G2 cells, % of GMNN control 0.971; inactive.
ATG10 #3 showed G2 robust z-score 0.133; G2 cells, % of GMNN control 3.9; inactive.
For ZNF17 #1, the values are G2 robust z-score -0.786; G2 cells, % of GMNN control -2.56; inactive.
ZNF17 #2 gave G2 robust z-score -1.39; G2 cells, % of GMNN control -6.83; inactive.
For ZNF17 #3 the deposit lists G2 robust z-score -0.642; G2 cells, % of GMNN control -1.55; inactive.
ANO8 #1 gave G2 robust z-score -0.759; G2 cells, % of GMNN control -2.37; inactive.
For ANO8 #2, the values are G2 robust z-score -0.209; G2 cells, % of GMNN control 1.5; inactive.
Against ANO8 #3, the values are G2 robust z-score 3.16; G2 cells, % of GMNN control 25.2; inactive.

Taken from above:
ANO8 #2, G2 cells, % of GMNN control = 1.5
ZNF17 #3, outcome: inactive
Value for ERBB3 #3 under “G2 robust z-score”: -1.09
